Laboratory results reported in publication PMC3945225, “RBPJ, the Major Transcriptional Effector of Notch Signaling, Remains Associated with Chromatin throughout Mitosis, Suggesting a Role in Mitotic Bookmarking”.
No constants are given. Whether binding was seen depends on the method and setting. Binding seen in cells or lysates may run through a third protein. Some entries that bind do so weakly or less than the wild type.

Chains of the proteins cited; added tags and fusions are not shown. Lines headed by an entry give the natural chain unless they say otherwise; changes in a name come on top. A line that says so, or that is headed by a name, gives the form on record, which may keep a tag or linker.
Flag-tagged RBPJ (P31266, form named): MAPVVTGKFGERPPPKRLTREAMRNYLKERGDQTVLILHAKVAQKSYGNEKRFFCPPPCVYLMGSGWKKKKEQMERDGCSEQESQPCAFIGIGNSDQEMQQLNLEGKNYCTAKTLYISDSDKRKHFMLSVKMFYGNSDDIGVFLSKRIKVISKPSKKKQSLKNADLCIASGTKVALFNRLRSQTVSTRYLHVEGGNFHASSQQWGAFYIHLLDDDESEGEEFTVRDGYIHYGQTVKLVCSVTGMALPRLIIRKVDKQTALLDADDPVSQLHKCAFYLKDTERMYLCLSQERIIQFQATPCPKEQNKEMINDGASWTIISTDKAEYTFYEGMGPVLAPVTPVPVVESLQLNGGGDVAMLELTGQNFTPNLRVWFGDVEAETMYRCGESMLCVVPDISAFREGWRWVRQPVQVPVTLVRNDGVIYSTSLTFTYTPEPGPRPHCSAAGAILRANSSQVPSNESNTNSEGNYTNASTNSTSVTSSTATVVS

Target: Flag-tagged RBPJ (mouse) (UniProt P31266)
Test: pull-down; Flag-tagged protein from 293T lysate bound overnight to anti-Flag (M2) agarose at 4°C, washed four times with PBS/0.05% Triton X-100, then incubated overnight with F9 cell lysate; four washes, eluted with Laemmli buffer, western blot (the methods head it 'Co-IP'); only the target …

- binding: binds
B1: endogenous CTCF (CCCTC-binding factor) (protein, UniProt Q61164 1-736)
chain: MEGEAVEAIVEESETFIKGKERKTYQRRREGGQEEDACHLPQNQTDGGEVVQDVNSSVQMVMMEQLDPTLLQMKTEVMEGTVAPEAEAAVDDTQIITLQVVNMEEQPINIGELQLVQVPVPVTVPVATTSVEELQGAYENEVSKEGLAESEPMICHTLPLPEGFQVVKVGANGEVETLEQGELPPQEDSSWQKDPDYQPPAKKTKKTKKSKLRYTEEGKDVDVSVYDFEEEQQEGLLSEVNAEKVVGNMKPPKPTKIKKKGVKKTFQCELCSYTCPRRSNLDRHMKSHTDERPHKCHLCGRAFRTVTLLRNHLNTHTGTRPHKCPDCDMAFVTSGELVRHRRYKHTHEKPFKCSMCDYASVEVSKLKRHIRSHTGERPFQCSLCSYASRDTYKLKRHMRTHSGEKPYECYICHARFTQSGTMKMHILQKHTENVAKFHCPHCDTVIARKSDLGVHLRKQHSYIEQGKKCRYCDAVFHERYALIQHQKSHKNEKRFKCDQCDYACRQERHMIMHKRTHTGEKPYACSHCDKTFRQKQLLDMHFKRYHDPNFVPAAFVCSKCGKTFTRRNTMARHADNCAGPDGVEGENGGETKKSKRGRKRKMRSKKEDSSDSEENAEPDLDDNEEEEEPAVEIEPEPEPQPQPPPPPQPVAPAPPPAKKRRGRPPGRTNQPKQNQPTAIIQVEDQNTGAIENIIVEVKKEPDAEPAEGEEEEAQAATTDAPNGDLTPEMILSMMDR
